Reference: PubChem BioAssay AID2685 (National Center for Advancing Translational Sciences (NCATS), 2010)
The other results are listed elsewhere or left out. Further columns of the screen follow, without active or inactive calls. The list favours compounds with an active or inconclusive main result. Potencies come from curve fits of mixed quality, noted in brackets.

Assay: qHTS Assay for Lipid Storage Modulators in Drosophila S3 Cells;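 on cell number change: cells counted by Cell Tracker Red CMTPX staining in the red channel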
Settings: BODIPY lipid droplet fluorescence, 18-24 h; for cell number change: measured here: cell count max response, cells fed with added oleic acid
Outline: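 Laser-scanning cytometry quantifies lipid droplet accumulation (500–530 nm total intensity; droplet/cell object ratio) in oleic acid-fed (400 uM added) Drosophila S3 cells treated with a concentration series. 20 uM Triacsin C defined 100% inhibition.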

[1] = measured here: lipid fluorescence (Fed channel) AC50, cells fed with added oleic acid
[2] = measured here: cell number channel AC50, cells fed with added oleic acid

| SMILES | cell number change | AC50 [1] | AC50 [2] |
| --- | --- | --- | --- |
| CCSc1ncc(Cl)c(C(=O)Nc2cc(C)ccc2C)n1 | 20% | 0.00461 µM [rising, full curve, poor fit] |  |
| Cc1ccc(S(=O)(=O)N2CCCC2C(=O)Nc2nc3c(s2)CCCC3)cc1 (stereo unspecified) |  |  | 2.91 µM [rising, single point] |
| O=c1oc2ccccc2c(NCc2ccccc2)c1[N+](=O)[O-] | -5.49% | 2.59 µM [rising, full curve] | 0.461 µM [falling, full curve] |
| O=C(CCn1cnc2ccccc2c1=O)Nc1ccc(S(=O)(=O)N2CCCCC2)cc1 | -17.2% | 25.9 µM [falling, single point] |  |
| CCCC(C)c1nnc(NC(=O)CCS(=O)(=O)Cc2ccccc2)s1 (stereo unspecified) | 14.6% | 25.9 µM [rising, single point] |  |
| O=Cc1cc2ccccc2nc1SCc1ccc(Cl)cc1 | -19.9% | 4.61 µM [falling, full curve] |  |
| CCc1sc(C(=O)N2CCc3ccccc32)cc1C | 14.6% |  |  |
| COc1ccc(S(=O)(=O)N2Cc3ccccc3CC2C(=O)O)cc1OC (stereo unspecified) | 14.8% | 0.731 µM [rising, single point] |  |
| COc1ccc(N2CCN(C(=O)CC(C)S(=O)(=O)c3ccc4c(c3)NC(=O)CO4)CC2)cc1 (stereo unspecified) | -46.4% |  |  |
| COC(=O)c1cc(OC)c(OC)cc1NCC(=O)Nc1cccc(C(F)(F)F)c1 | -50% |  | 1.03 µM [falling, full curve] |
| Cc1ccc(C(=O)NCCNC(=O)c2ccco2)cn1 | 13.1% |  |  |
| CN1CCN(Cc2oc(CO)cc(=O)c2O)CC1 | -12.5% |  | 1.84 µM [falling, partial curve] |
| CCn1cnc2c1c(=O)n(CC(=O)Nc1ccc3c(c1)OC(F)(F)O3)c(=O)n2Cc1ccccc1 |  | 6.51 µM [rising, single point] |  |
| Cc1ccc(-c2csc3nc(C)n(N)c(=O)c23)o1 | 87.5% | 0.517 µM [rising, partial curve] | 0.58 µM [rising, full curve] |
| O=C(Cc1c(C(=O)O)[nH]c2ccc(Cl)cc12)Nc1ccc2c(c1)OCCO2 | -12.4% | 0.0517 µM [falling, full curve, poor fit] |  |
| O=C(NCCc1ccc(C(F)(F)F)cc1)C1CC(=O)N(c2ccc3c(c2)OCCO3)C1 (stereo unspecified) | 18.7% |  | 0.366 µM [rising, partial curve, poor fit] |
| Cc1ccc2cc(CN(CCCO)S(=O)(=O)c3ccccc3F)c(=O)[nH]c2c1C | 3.04% |  |  |
| COc1ccccc1CNCC(O)Cn1c2ccccc2c2ccccc21 (stereo unspecified) | -31.6% | 0.103 µM [rising, full curve, poor fit] | 29.1 µM [falling, single point] |
| N#C/C(=C(/O)CN1C(=O)c2ccccc2C1=O)c1nc2ccccc2[nH]1 | -1.29% |  |  |
| CC(C)c1cc(=O)[nH]c(N2CCN(Cc3ccc4c(c3)OCO4)CC2)n1 | 5.47% | 1.46 µM [rising, partial curve] | 3.66 µM [rising, partial curve, poor fit] |

Full records, quoted from the list:
`COc1ccc(S(=O)(=O)N2Cc3ccccc3CC2C(=O)O)cc1OC` (stereo unspecified) as listed: cell number change: 14.8%; AC50 [1]: 0.731 µM [rising, single point]
`COc1ccccc1CNCC(O)Cn1c2ccccc2c2ccccc21` (stereo unspecified) as listed: cell number change: -31.6%; AC50 [1]: 0.103 µM [rising, full curve, poor fit]; AC50 [2]: 29.1 µM [falling, single point]
`CC(C)c1cc(=O)[nH]c(N2CCN(Cc3ccc4c(c3)OCO4)CC2)n1` as listed: cell number change: 5.47%; AC50 [1]: 1.46 µM [rising, partial curve]; AC50 [2]: 3.66 µM [rising, partial curve, poor fit]

(next part)

| SMILES | cell number change | AC50 [1] | AC50 [2] |
| --- | --- | --- | --- |
| CC1=NS(=O)(=O)c2cc(Cl)ccc2N1 | -23.9% | 14.6 µM [rising, single point] |  |
| CCOC(=O)CNc1ncc(C(F)(F)F)cc1Cl | 45.2% |  | 18.4 µM [rising, single point] |
| CC(C)(C)CC(=O)Nc1ccc(Nc2ccccc2)cc1 | -17.2% | 6.51 µM [rising, single point] |  |
| COc1ccc(OC)c(-n2nnnc2SCC(=O)Nc2nc(C)c(C)s2)c1 | 20.7% | 23.1 µM [rising, single point] |  |
| CCOc1ccc(NC(=O)COc2ccc(C(=O)NCc3cccnc3)cc2OC)cc1 | 59.4% | 6.51 µM [rising, partial curve] | 8.2 µM [rising, partial curve, poor fit] |
| CCOC(=O)C1CCN(C(=O)C2CCN(S(=O)(=O)c3ccc4ccccc4c3)CC2)CC1 | -5.53% |  | 0.112 µM [falling, full curve, poor fit] |
| COC(=O)c1ccc(C2C(Oc3ccc(OC)cc3)C(=O)N2CCc2ccc(F)cc2)cc1 (stereo unspecified) | 43.5% |  | 0.411 µM [rising, full curve, poor fit] |
| COc1ccc(/C=C(/NC(=O)c2ccco2)C(=O)N2CCCCC2)cc1 | -4.14% |  |  |
| Cc1nn(C)c(C(=O)N/N=C/c2cc3c(cc2Br)OCO3)c1Br | 22.3% | 3.26 µM [rising, partial curve] |  |
| O=[N+]([O-])c1cc([N+](=O)[O-])c2cccnc2c1O | -58% | 29.1 µM [falling, single point] | 29.1 µM [falling, partial curve, poor fit] |
| CN(C)CCCNC(=O)/C(=C\C=C\c1ccccc1)NC(=O)c1ccc([N+](=O)[O-])cc1 | 16.8% | 0.517 µM [rising, full curve, poor fit] |  |
| COc1cccc(CN(C)C(=O)C2CCN(S(=O)(=O)c3cccs3)CC2)c1OC | 45.1% | 29.1 µM [rising, single point] | 7.31 µM [rising, partial curve, poor fit] |
| Cc1ccc(S(=O)(=O)NCC2CCC(C(=O)NCc3ccco3)CC2)cc1 (stereo unspecified) |  | 0.58 µM [falling, single point] |  |
| COc1ccccc1NC(=O)CSc1nnc(C)n1CCc1ccccc1 | -40.6% |  | 29.1 µM [falling, single point] |
| CS(=O)(=O)N1CCC(C(=O)Nc2ccccc2Sc2ccccc2)CC1 | 69.5% |  | 11.6 µM [rising, partial curve] |
| Cc1cc(-c2n[nH]c(=S)n2/N=C/c2ccc(Br)s2)n[nH]1 | 1.07% | 0.517 µM [rising, partial curve, poor fit] |  |
| CC(C)C[C@H](NC(=O)c1[nH]cnc1C(=O)N[C@@H](Cc1ccccc1)C(=O)OCc1ccccc1)C(=O)OC(C)(C)C | 53.9% | 0.291 µM [falling, partial curve, poor fit] | 10.3 µM [rising, partial curve, poor fit] |
| Cc1ccc(NS(=O)(=O)c2sc3ccc(Cl)cc3c2C)cc1 | -67.9% | 18.4 µM [falling, partial curve] | 11.6 µM [falling, partial curve] |
| COc1ccc(CCNC(=O)C(=O)N2CCCC2)cc1OC | -38.2% | 5.8 µM [falling, full curve] | 5.8 µM [falling, full curve] |
| O=C(NCCCNCCCNC(=O)c1ccccn1)c1ccccn1 | -17.8% | 0.116 µM [falling, full curve, poor fit] |  |

| SMILES | cell number change | AC50 [1] | AC50 [2] |
| --- | --- | --- | --- |
| CCc1cc(=O)n2[nH]c(C)c(-c3ccc(OC)cc3)c2n1 | -18% |  |  |
| Cc1ccc(N(Cc2ccc([N+](=O)[O-])cc2)C(=O)c2ccco2)cc1 | -12.6% | 0.00517 µM [rising, full curve, poor fit] |  |
| Cc1ccc(C)c(NC(=O)C(OC(=O)c2ccc(CO)cc2)c2ccccc2)c1 (stereo unspecified) | 42.2% |  | 0.366 µM [rising, full curve] |
| COc1cccc(NC(=O)CN(C)C(=O)C(Sc2ccccc2)c2ccccc2)c1 (stereo unspecified) | -10.1% | 0.116 µM [falling, full curve, poor fit] |  |
| CCCSc1oc(-c2ccco2)nc1S(=O)(=O)c1ccc(C)cc1 | 19% | 0.116 µM [rising, full curve, poor fit] |  |
| CCOC(=O)N1CCN(C(=O)CSc2ccc3nnc(-c4ccccn4)n3n2)CC1 | 28.5% |  |  |
| CCOC(=O)c1c(NC(=O)COC(=O)c2ccc([N+](=O)[O-])cc2)sc(C(=O)N(C)C)c1C | -25% | 18.4 µM [rising, single point] | 2.06 µM [falling, full curve, poor fit] |
| Cc1nn(CC(=O)N2CCc3ccccc3C2)c(C)c1Cl | -24.5% |  |  |
| CCOC(=O)C1=C(C)NC2=C(C(=O)CCC2)C1c1ccsc1 (stereo unspecified) | 2.75% |  |  |
| CCOc1ccc(NC(=O)C2CC(=O)N(CCc3ccccc3)C2)cc1OC (stereo unspecified) | -35.1% | 20.6 µM [falling, partial curve, poor fit] | 29.1 µM [falling, single point] |
| CCCC(=O)Nc1ccc(-c2csc(NNC(C)=O)n2)cc1 | 23.4% |  |  |
| O=S(=O)(NCCC1=CCCCC1)c1cccc(Br)c1 | 60.3% |  | 16.4 µM [rising, partial curve] |
| Cc1ccccc1NC(=O)Cn1nc(-c2ccc(Cl)s2)ccc1=O | -13.1% | 29.1 µM [falling, single point] |  |
| COc1ccc(-n2c(SCC(=O)Nc3ccc(Br)cc3)nc(O)cc2=O)cc1 | 17.3% | 29.1 µM [falling, single point] |  |
| O=C(COc1ccc2c(c1)CCC2)NCc1ccc(Cl)cc1 | -3.75% |  | 0.13 µM [falling, full curve, poor fit] |
| CCc1noc(C)c1C(=O)Nc1ccc(-c2nnc3n2CCCCC3)cc1 |  | 0.651 µM [falling, single point] | 0.103 µM [falling, full curve, poor fit] |
| O=[N+]([O-])c1cc([N+](=O)[O-])c2cc3ccccc3nc2c1 |  | 11.6 µM [falling, single point] |  |
| NS(=O)(=O)c1ccc(CCNC(=O)CCCNC(=O)c2ccc(Cl)cc2)cc1 | 30.6% | 29.1 µM [rising, partial curve] |  |
| COc1ccc(NS(=O)(=O)c2ccc(NS(=O)(=O)c3cccs3)cc2)cc1 | 15.2% | 6.51 µM [falling, single point] | 2.91 µM [rising, partial curve] |
